Source: patent publication US5618681A, “Polyaromatic hydrocarbon (PAH) immunoassay method, its components and a kit for use in performing the same” (priority 1995, dated 1997)

Tested on: anti-PAH monoclonal antibody
Test: Sensitivity profiles of the PAH immunoassay using phenanthrene spikes compared to the kit standard
Type: binding, Balb/c mice

c1ccc2c(c1)ccc1ccccc12 [Phenanthrene, reference compound]
confidence in results at different operating temperatures (0 ppm and 1 ppm phenanthrene levels, 4° C. to 32° C.): ≥ 95%
confidence level in positive results (phenanthrene at 1 ppm or above, relative to 0.65 ppm kit standard, room temperature): ≥ 95%
